Test results: paper PMC10709559
Results are given in words; binding and its absence hold for the method and conditions named. In cells and extracts the contact can be indirect. Some binding calls cover weakened binding; strength is not graded here. Sequences can lack the tags named with a protein.

Target: T1, CTCF (human (endogenous in HEK293)) (UniProt P49711)
T1 sequence: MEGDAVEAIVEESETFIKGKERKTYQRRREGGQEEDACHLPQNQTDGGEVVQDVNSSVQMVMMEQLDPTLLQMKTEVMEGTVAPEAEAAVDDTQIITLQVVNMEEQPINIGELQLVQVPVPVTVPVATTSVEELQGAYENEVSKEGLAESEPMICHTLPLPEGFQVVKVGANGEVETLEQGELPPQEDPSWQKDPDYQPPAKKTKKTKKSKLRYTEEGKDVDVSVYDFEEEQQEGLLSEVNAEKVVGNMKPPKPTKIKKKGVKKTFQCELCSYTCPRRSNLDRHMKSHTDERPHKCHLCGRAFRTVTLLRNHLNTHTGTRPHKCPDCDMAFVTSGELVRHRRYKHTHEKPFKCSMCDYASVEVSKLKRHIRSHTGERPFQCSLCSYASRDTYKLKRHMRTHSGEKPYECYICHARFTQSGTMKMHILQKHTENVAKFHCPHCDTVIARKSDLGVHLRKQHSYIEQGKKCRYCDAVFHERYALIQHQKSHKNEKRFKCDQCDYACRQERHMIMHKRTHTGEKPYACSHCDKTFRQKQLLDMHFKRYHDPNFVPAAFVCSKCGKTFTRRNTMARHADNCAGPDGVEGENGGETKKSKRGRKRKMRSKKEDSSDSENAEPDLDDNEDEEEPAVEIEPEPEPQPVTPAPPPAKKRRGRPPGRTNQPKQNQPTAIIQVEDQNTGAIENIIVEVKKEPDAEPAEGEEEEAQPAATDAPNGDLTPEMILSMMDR
Experiment: co-IP; HEK293 transfected with ΔNp63α-HA, lysed 24 h later in Triton buffer (150 mM NaCl, 50 mM Tris HCl, 0.5% Triton); 2 mg lysate; anti-CTCF or IgG isotype control on Protein A Sepharose, overnight at 4 °C; Western blot for HA and CTCF

B1: ΔNp63α-HA (protein, UniProt Q9H3D4-2 1-586)
chain: MLYLENNAQTQFSEPQYTNLGLLNSMDQQIQNGSSSTSPYNTDHAQNSVTAPSPYAQPSSTFDALSPSPAIPSNTDYPGPHSFDVSFQQSSTAKSATWTYSTELKKLYCQIAKTCPIQIKVMTPPPQGAVIRAMPVYKKAEHVTEVVKRCPNHELSREFNEGQIAPPSHLIRVEGNSHAQYVEDPITGRQSVLVPYEPPQVGTEFTTVLYNFMCNSSCVGGMNRRPILIIVTLETRDGQVLGRRCFEARICACPGRDRKADEDSIRKQQVSDSTKNGDGTKRPFRQNTHGIQMTSIKKRRSPDDELLYLPVRGRETYEMLLKIKESLELMQYLPQHTIETYRQQQQQQHQHLLQKQTSIQSPSSYGNSSPPLNKMNSMNKLPSVSQLINPQQRNALTPTTIPDGMGANIPMMGTHMPMAGDMNGLSPTQALPPPLSMPSTSHCTPPPPYPTDCSIVSFLARLGCSSCLDYFTTQGLTTIYQIEHYSMDDLASLKIPEQFRHAIWKGILDHRQLHEFSSPSHLLRTPSSASTVSVGSSETRGERVIDAVRFTLRQTISFPPRDEWNDFNFDMDARRNKQQRIKEEGE
Q: B1 was tested. Which binding did it give?
A: binds
